We go through 42 sequences from paper PMC7819943, “Rice protein-binding microarrays: a tool to detect cis-acting elements near promoter regions in rice”.

The chains behind the UniProt entries cited, without tags or fusion partners.
UniProt Q0JBA9, entry or part of it: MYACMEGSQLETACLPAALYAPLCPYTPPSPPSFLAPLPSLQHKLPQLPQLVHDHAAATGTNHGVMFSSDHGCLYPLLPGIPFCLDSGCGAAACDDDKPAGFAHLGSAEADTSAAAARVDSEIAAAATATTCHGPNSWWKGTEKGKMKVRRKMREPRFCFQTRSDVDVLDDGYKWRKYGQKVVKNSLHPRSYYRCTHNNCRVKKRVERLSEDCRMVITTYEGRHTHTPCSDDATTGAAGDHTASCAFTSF

The list shows a part of the results.

The target of this test is OsWRKY34 (Oryza sativa, UniProt Q0JBA9 1-250). The test is described as follows: protein-binding microarray (RPBM); PBS, 2% BSA, 51.3 ng/ul salmon testes DNA, 50 uM zinc acetate, 200 nM TF, 25 C, 1 h; high values mean tight binding. The conditions noted are these: protein: recombinant; tags: N-terminal polyhistidine and DsRed monomer fusion (pET32a); label: CyDye5-dUTP incorporated in the synthesized complementary strand; 3' TTTTT single-stranded linker to array surface; dsDNA, one strand shown. The procedure, abridged:
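The binding signal is fluorescence intensity per array feature (arbitrary units). Readings came from an Axon 4000B scanner after a washed, 2% BSA-blocked, double-stranded custom Agilent array had been incubated for 1 h at 25 °C with 200 nM protein and 50 µM zinc acetate. The protein was a Ni–NTA-purified transcription factor fused N-terminally to polyhistidine and DsRed, expressed in E. coli BL21-CodonPlus.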
With “GGCATCTTTACTTTCTACAAAAATATTTTTGTATGATATACGGAGTCACCTAGTGCAG”, the binding signal was 9090 fluorescence intensity (a.u.). As for “TGTACATAGAGCTGTCAAACAAATTTAGGGAGGGCTGTGACGGAGTCACCTAGTGCAG”, the figure is 10800 fluorescence intensity (a.u.); as for “ACAGAGGTCGTTCCAAGCCGCCACCGCACTCCACCGCAGCCGGAGTCACCTAGTGCAG”, 8900 fluorescence intensity (a.u.).

In the case of “GTGTGATTTGTTTGTTGAGGCTGGGGCATGTTCTCGGGGACGGAGTCACCTAGTGCAG”, the binding signal was 15100 fluorescence intensity (a.u.).

For the sequence “GAGTACTACGAGAAGCAGTCGCGCCACATCCTCGACACCACGGAGTCACCTAGTGCAG”, the binding signal was 8280 fluorescence intensity (a.u.). The same measure for “TTAAATTTCTCATCTCGTCAGCATGTGTTTTCATAAAAAACGGAGTCACCTAGTGCAG”: 8070 fluorescence intensity (a.u.); for “ATTCTTCTCGGCCCACTCTGATCTGTCCAGCATCACATTCCGGAGTCACCTAGTGCAG”: 14400 fluorescence intensity (a.u.). As for “GCTATTTTCTTTTGTCATCTAATAAGGGAACTAGATTTGTCGGAGTCACCTAGTGCAG”, the binding signal is 8110 fluorescence intensity (a.u.). As for “ATCTCCAGATATACATGTCTTCCTCATTGTTCCTCCTTACCGGAGTCACCTAGTGCAG”, the figure is 8640 fluorescence intensity (a.u.); as for “TGATCCTCTACTTCTCCAGTGCGGCACCGTGCCGCGCGGCCGGAGTCACCTAGTGCAG”, 13200 fluorescence intensity (a.u.). As for “CTCTCAGTTTGCATGCAGCTCTGCATTTTCTGCTGATGAACGGAGTCACCTAGTGCAG”, the figure is 12400 fluorescence intensity (a.u.); as for “CTTATCTCTCTCGTTTTCCACGCACACGTTTTTCAAACCGCGGAGTCACCTAGTGCAG”, 8940 fluorescence intensity (a.u.); as for “CTTTAATTTGCATGTCTCTCCATCACTACCAAATTCGGCTCGGAGTCACCTAGTGCAG”, 8530 fluorescence intensity (a.u.).

For “ACTGGTTTCTTTTGTTGTTCTCATTGAGCATTAGCATGTGCGGAGTCACCTAGTGCAG”, the binding signal was 8260 fluorescence intensity (a.u.).

Turning to “CCACACACGCACCCCTACACGCATGCTAGACCTATCAACTCGGAGTCACCTAGTGCAG”, the binding signal is 9390 fluorescence intensity (a.u.). Turning to “CGACGAATGTCTGTTATCGTCCGTTTTCTGTGAATTATTTCGGAGTCACCTAGTGCAG”, the binding signal was 9940 fluorescence intensity (a.u.). Regarding “CACCATGGCCTACATCCTCGCCGTCAACGCCTCCATCCTCCGGAGTCACCTAGTGCAG”, the binding signal was 10300 fluorescence intensity (a.u.). As to “AATGGTCAAACACGTATTTAAAAAGTCAACGGTGTCAAACCGGAGTCACCTAGTGCAG”, the binding signal is 14100 fluorescence intensity (a.u.).

For “AAATAGGGTTTGGAGGGTATTTTCGTCACTAGGAAGTCTTCGGAGTCACCTAGTGCAG”, the binding signal was 8180 fluorescence intensity (a.u.). As for “TTCTGATATGTCTTTTTTTTTATCGATTCTTTGTATTTACCGGAGTCACCTAGTGCAG”, the binding signal is 10400 fluorescence intensity (a.u.). The same measure for “TCTTGTCCACCACGCGTCAGTTTAGCATGCCGCACGTCTCCGGAGTCACCTAGTGCAG”: 11600 fluorescence intensity (a.u.); for “GAATGCTTTTGTTGTGGTCGGTCACCTTCGATCGGATGCACGGAGTCACCTAGTGCAG”: 8600 fluorescence intensity (a.u.). The same measure for “CGATATCCCACTTCCCGGCATATTTCCAGCGGCAATCTTCCGGAGTCACCTAGTGCAG”: 8150 fluorescence intensity (a.u.). The same measure for “TTCTTCTACATCTTACTCCTTTCTTCATGTATTCCACATCCGGAGTCACCTAGTGCAG”: 11400 fluorescence intensity (a.u.).

On to “ATGTAGTAATCTCATGGATTAAAGGCTCTTTTTTCTTGTCCGGAGTCACCTAGTGCAG”, for which the binding signal was 8860 fluorescence intensity (a.u.). The same measure for “CACACCACCGGCCGCCGCCGCCGCGCCGCCATTCGCGATGCGGAGTCACCTAGTGCAG”: 8550 fluorescence intensity (a.u.); for “TTTTTATTTGTTATTTACAAGACTAGTATGCTTCATCTGCCGGAGTCACCTAGTGCAG”: 8050 fluorescence intensity (a.u.).

On to “TTTGGGGTGTGTTTTTGTCTAGAGGTAAAGTTTTTAAAGTCGGAGTCACCTAGTGCAG”, for which the binding signal was 10600 fluorescence intensity (a.u.).

As to “TAACCTGGAACTCATTTCGTCTTAATCTGAAGCATCCCATCGGAGTCACCTAGTGCAG”, the binding signal was 8950 fluorescence intensity (a.u.). The same measure for “CGACCGCATCAACAAATACAGCCCAAGTCCTATGCAATAACGGAGTCACCTAGTGCAG”: 8140 fluorescence intensity (a.u.); for “TATCCATGCATTCCTTACGCTCGGTCTCTTTTCTTTCGCCCGGAGTCACCTAGTGCAG”: 9280 fluorescence intensity (a.u.). The same measure for “CATCGTGCAATTGATTGATCGTCTGATTTTATGTCGATTCCGGAGTCACCTAGTGCAG”: 8640 fluorescence intensity (a.u.); for “CGAACTCCTCCCGTTTTCCCGTCCCCGCATCCGCAAATCACGGAGTCACCTAGTGCAG”: 9500 fluorescence intensity (a.u.); for “CGCCGCCGCCCTCACCCTCGCCGCCGCGCATCCCGCGGTCCGGAGTCACCTAGTGCAG”: 8120 fluorescence intensity (a.u.). Regarding “ATGGGAGGGGCTTTGGTGGCAATGGAGTTAACCTTCCTCTCGGAGTCACCTAGTGCAG”, the binding signal is 10800 fluorescence intensity (a.u.).

With “CGCAAAATCAATCAAATCTGCCTCGACTTTTTTTTTTCAGCGGAGTCACCTAGTGCAG”, the binding signal was 8870 fluorescence intensity (a.u.). The same measure for “CCTGTCTCGCTGCACAGTTGTACACTCTCCTGGAGAATGCCGGAGTCACCTAGTGCAG”: 9170 fluorescence intensity (a.u.); for “AACCTCTCCATGCCTTGCTGCGCTCCGGCATTTCGTCAAACGGAGTCACCTAGTGCAG”: 9720 fluorescence intensity (a.u.); for “TTGGGTTTAGGGCGGTAATTCGGTTGACCGCGATAGTTCACGGAGTCACCTAGTGCAG”: 12400 fluorescence intensity (a.u.). The same measure for “TCGATCGCCTGCTCCGCTACGAATAGCCATGTTGCGACCCCGGAGTCACCTAGTGCAG”: 8840 fluorescence intensity (a.u.); for “TCTGAGTGGTTCTCTGGGCGTTGTTGGTGCGTTCTTGATCCGGAGTCACCTAGTGCAG”: 8900 fluorescence intensity (a.u.); for “GATTGCTCCGACCTCACCGTCTCTCTTCTTTCTCCCCAATCGGAGTCACCTAGTGCAG”: 10700 fluorescence intensity (a.u.).
